Measured data: PubChem BioAssay AID504791 (Drosophila RNAi Screening Center, 2011)

Test: 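Genes of the fly required for silencing by miRNA, siRNA or endo-siRNA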 (primary screen)
Cells: Drosophila S2-derived reporter cells
Reagents: long dsRNA against Drosophila genes, about 150-250 ng dsRNA per well (siRNA assay); about 80-120 ng (miRNA assay)
Time to read-out: about 5 days (siRNA assay); about 4 days (miRNA assay)
Treatment: copper sulfate induction of reporters: 25 µM (siRNA assay); 200 mM stated (miRNA assay), 1-2 days before reading
Read-out: 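Per-well ratio of Renilla over firefly light, expressed relative to that plate's average ratio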
Scale: siRNA reporter hit score: higher = 3 marks a strong hit with raised ratio; -3 a strong hit with lowered ratio
Units: stable assay Renilla, run 1 in luminescence; stable assay firefly, run 1 in luminescence
Rule for the call: 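First-pass picks had plate-scaled ratios over 1.5 for the siRNA assay, over 1.6 for the miRNA assay, or under 0.6; two distinct dsRNAs had to score alike on retest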
The deposit covers about 23,000 reagents; below is an unselected part of those with a known target gene and a result. Over the whole deposit, 199 (0.86%) got an active call. 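Plate-scaled ratios behind the calls are not deposited; printed light signals are raw; many rows marked increased or decreased are still called inactive.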

CG8958 [DRSC20134] gave stable assay Renilla, run 1 = 3915; stable assay firefly, run 1 = 3.20e5; inactive.
For CG10214 [DRSC14213], the values are stable assay Renilla, run 1 = 10387; stable assay firefly, run 1 = 4.63e5; inactive.
With knock-down of CG32681 [DRSC17646], the record shows stable assay Renilla, run 1 = 5943; stable assay firefly, run 1 = 4.83e5; inactive.
Knock-down of Ncoa6 [DRSC02353] resulted in: siRNA reporter hit score 3; stable assay Renilla, run 1 = 58625; stable assay firefly, run 1 = 1.32e5; inactive.
Ncoa6 [DRSC23060] gave stable assay Renilla, run 1 = 3715; stable assay firefly, run 1 = 2.61e5; inactive.
Silencing of ari-1 [DRSC20308] came out at: stable assay Renilla, run 1 = 4916; stable assay firefly, run 1 = 4.25e5; inactive.
Depletion of ari-1 [DRSC21603] came out at: stable assay Renilla, run 1 = 9623; stable assay firefly, run 1 = 4.12e5; inactive.
After knock-down of yrt [DRSC16559], the screen gave stable assay Renilla, run 1 = 9095; stable assay firefly, run 1 = 6.74e5; inactive.

2 of these entries, set out differently:
{"gene":"Ncoa6","amplicon":"DRSC23060","stable assay Renilla, run 1":3715,"stable assay firefly, run 1":2.61e5,"Call":"inactive"}
{"gene":"ari-1","amplicon":"DRSC20308","stable assay Renilla, run 1":4916,"stable assay firefly, run 1":4.25e5,"Call":"inactive"}

The listing continues.
For Lamtor3 [DRSC02815], the values are stable assay Renilla, run 1 = 7414; stable assay firefly, run 1 = 5.23e5; inactive.
CG7702 [DRSC16293] scored stable assay Renilla, run 1 = 8695; stable assay firefly, run 1 = 5.24e5; inactive.
Knock-down of CG7365 [DRSC10824] resulted in: stable assay Renilla, run 1 = 11152; stable assay firefly, run 1 = 4.27e5; inactive.
Depletion of ERp44 [DRSC20215] resulted in: stable assay Renilla, run 1 = 8303; stable assay firefly, run 1 = 6.79e5; inactive.
